# Experimental data taken from patent US20100086997A1 (published 2010).
# By UniProt entry, the sequences of proteins in these tests, tags left out. Residues count along the entry.
# UniProt Q16620, residues 32-430: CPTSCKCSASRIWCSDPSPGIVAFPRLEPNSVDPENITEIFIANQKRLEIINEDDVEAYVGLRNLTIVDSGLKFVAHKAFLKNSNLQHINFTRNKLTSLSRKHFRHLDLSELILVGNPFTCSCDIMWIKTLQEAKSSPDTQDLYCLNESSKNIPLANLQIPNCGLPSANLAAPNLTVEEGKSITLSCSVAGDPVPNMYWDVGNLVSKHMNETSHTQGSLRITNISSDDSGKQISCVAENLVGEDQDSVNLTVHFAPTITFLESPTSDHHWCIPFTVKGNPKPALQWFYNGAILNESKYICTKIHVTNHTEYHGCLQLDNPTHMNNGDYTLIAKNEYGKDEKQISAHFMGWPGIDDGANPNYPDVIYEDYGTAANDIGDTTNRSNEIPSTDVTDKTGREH
# Results are given in words; binding and its absence hold for the method and conditions named. Some binding calls cover weakened binding; strength is not graded here.
# B1: NT4/5 (ligand, UniProt P34130 81-210, looked up)
# chain: GVSETAPASRRGELAVCDAVSGWVTDRRTAVDLRGREVEVLGEVPAAGGSPLRQYFFETRCKADNAEEGGPGAGGGGCRGVDRRHWVSECKAKQSYVRALTADAQGRVGWRWIRIDTACVCTLLSRTGRA
# Target: T1, human TrkB-Fc fusion protein (human, UniProt Q16620 32-430)
# T1 construct: Bought from R&D Systems or made in-house; also called HuTrkB; Fc-fused recombinant human TrkB; not shown: Fc part
# Experiment: SPR (Biacore), dimeric ligand over immobilised TrkB-Fc
binder,measurement,value
B1,binding,binds
